Test results: article PMC9151573

By UniProt entry, the sequences of proteins in these tests, tags left out.
UniProt Q00688: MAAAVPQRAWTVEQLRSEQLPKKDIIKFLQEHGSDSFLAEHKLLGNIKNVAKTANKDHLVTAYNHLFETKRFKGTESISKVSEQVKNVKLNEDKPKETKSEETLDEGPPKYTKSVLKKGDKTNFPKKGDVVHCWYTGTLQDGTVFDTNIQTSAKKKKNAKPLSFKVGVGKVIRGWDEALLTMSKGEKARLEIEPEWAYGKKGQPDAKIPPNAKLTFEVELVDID

What was measured:
[1] = molecular target: V5-p53-miniTurbo-NES (human) (UniProt P04637); assay: proximity labelling; BioID: V5-p53-miniTurbo-NES in HepG2 p53KO cells, 2 h growth or starvation medium with 250 µM biotin; lysis in 8 M urea, streptavidin beads, LC-MS/MS; background control V5-EGFP-miniTurbo-NES
[2] = molecular target: p53 (endogenous) (human (endogenous in HepG2)) (UniProt P04637); assay: affinity purification with mass spectrometry; RIME: HepG2 wt cells 24 h in growth or starvation medium, cross-linked with 1% formaldehyde, nuclei isolated, endogenous p53 precipitated with DO1 antibody, IgG2A isotype control, on-bead digest, LC-MS/MS

With “Cell division control protein 42 homolog (CDC42) (from UniProt P60953 1-191)” the binding [1] was “binds”.

In the case of “Pyruvate kinase (PKM) (from UniProt P14618 1-531) (enzyme)”, the binding [1] is reported as “binds”.

For “PPP1CC (from UniProt P36873 1-323) (enzyme)”, the binding [2] was “binds”.

In the case of “FKBP prolyl isomerase 3 (FKBP3) (from UniProt Q00688 1-224) (enzyme)”, the binding [1] is reported as “binds”.

“Isocitrate dehydrogenase [NADP] cytoplasmic (IDH1) (from UniProt O75874 1-414) (enzyme)” was tested, and the binding [1] was “binds”.

These are yes or no findings as the source states them, for the method shown. In cells and extracts the contact can be indirect. A yes stands for co-enrichment or nearness to the bait. Other partners may have been found.
